Experimental data: the supplement of paper PMC8728848
The list shows a part of the results.

Legend:
Experiment in all cases: glycan array binding signal (z-score within array); higher = stronger binding
Conditions in all cases: glycan notation: IUPAC condensed, linker removed
[1] = target: Gal(b1-3)GlcNAc(b1-3)Gal(b1-4)GlcNAc(b1-2)[Gal(b1-3)GlcNAc(b1-3)Gal(b1-4)GlcNAc(b1-6)]Man(a1-6)[Gal(b1-3)GlcNAc(b1-3)Gal(b1-4)GlcNAc(b1-2)Man(a1-3)]Man(b1-4)GlcNAc(b1-4)[Fuc(a1-6)]GlcNAc
How it was run: (§1)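 From the Consortium for Functional Glycomics database, 3228 arrays were curated, keeping only those whose protein sequence was available. Binding is given as a within-array Z-score averaged across arrays sharing a protein sequence and across linkers. Negative Z-scores can be read as non-binding.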

[2] = target: Gal(b1-3)GlcNAc(b1-3)Gal(b1-4)GlcNAc(b1-3)Gal(b1-4)GlcNAc(b1-2)[Gal(b1-3)GlcNAc(b1-3)Gal(b1-4)GlcNAc(b1-3)Gal(b1-4)GlcNAc(b1-6)]Man(a1-6)[Gal(b1-3)GlcNAc(b1-3)Gal(b1-4)GlcNAc(b1-3)Gal(b1-4)GlcNAc(b1-2)Man(a1-3)]Man(b1-4)GlcNAc(b1-4)[Fuc(a1-6)]GlcNAc
How it was run: as §1

[3] = target: Gal(b1-3)GlcNAc(b1-3)Gal(b1-4)GlcNAc(b1-6)[Gal(b1-3)GlcNAc(b1-3)]Gal(b1-4)Glc
How it was run: as §1

[4] = target: Gal(b1-3)GlcNAc(b1-3)Gal(b1-4)[Fuc(a1-3)]GlcNAc
How it was run: as §1

[5] = target: Gal(b1-3)GlcNAc(b1-3)Gal(b1-4)[Fuc(a1-3)]GlcNAc(b1-6)[Gal(b1-3)GlcNAc(b1-3)]Gal(b1-4)Glc
How it was run: as §1

[6] = target: Gal(b1-3)GlcNAc(b1-3)GalNAc
How it was run: as §1

[7] = target: Gal(b1-3)GlcNAc(b1-6)Gal(b1-4)GlcNAc
How it was run: as §1

[8] = target: Gal(b1-3)GlcNAc(b1-6)GalNAc
How it was run: as §1

[9] = target: Gal(b1-3)GlcNAc(b1-6)[Gal(b1-3)]GalNAc
How it was run: as §1

Gal(b1-3)GlcNAc6S = target: Gal(b1-3)GlcNAc6S
How it was run: as §1

[10] = target: Gal(b1-3)[Fuc(a1-4)]GlcNAc
How it was run: as §1

[11] = target: Gal(b1-3)[Fuc(a1-4)]GlcNAc(b1-2)Man
How it was run: as §1

[12] = target: Gal(b1-3)[Fuc(a1-4)]GlcNAc(b1-2)Man(a1-3)[Gal(b1-3)[Fuc(a1-4)]GlcNAc(b1-2)Man(a1-6)]Man(b1-4)GlcNAc(b1-4)GlcNAc
How it was run: as §1

[13] = target: Gal(b1-3)[Fuc(a1-4)]GlcNAc(b1-2)Man(a1-3)[Gal(b1-3)[Fuc(a1-4)]GlcNAc(b1-2)Man(a1-6)]Man(b1-4)GlcNAc(b1-4)[Fuc(a1-6)]GlcNAc
How it was run: as §1

[14] = target: Gal(b1-3)[Fuc(a1-4)]GlcNAc(b1-3)Gal(b1-3)[Fuc(a1-4)]GlcNAc
How it was run: as §1

[15] = target: Gal(b1-3)[Fuc(a1-4)]GlcNAc(b1-3)Gal(b1-4)GlcNAc
How it was run: as §1

[16] = target: Gal(b1-3)[Fuc(a1-4)]GlcNAc(b1-3)Gal(b1-4)[Fuc(a1-3)]GlcNAc
How it was run: as §1

[17] = target: Gal(b1-3)[Fuc(a1-4)]GlcNAc(b1-6)GalNAc
How it was run: as §1

[18] = target: Gal(b1-3)[GlcNAc(b1-6)]GalNAc
How it was run: as §1

[19] = target: Gal(b1-3)[Neu5Ac(a2-6)]GalNAc
How it was run: as §1

[20] = target: Gal(b1-3)[Neu5Ac(a2-6)]GlcNAc(b1-4)Gal(b1-4)Glc
How it was run: as §1

[21] = target: Gal(b1-3)[Neu5Ac(a2-6)]GlcNAc(b1-6)Gal(b1-4)Glc
How it was run: as §1

[22] = target: Gal(b1-3)[Neu5Ac(b2-6)]GalNAc
How it was run: as §1

Gal(b1-4)Gal = target: Gal(b1-4)Gal
How it was run: as §1

[23] = target: Gal(b1-4)GalNAc(a1-3)[Fuc(a1-2)]Gal(b1-4)GlcNAc
How it was run: as §1

[24] = target: Gal(b1-4)GalNAc(b1-3)[Fuc(a1-2)]Gal(b1-4)GlcNAc
How it was run: as §1

Gal(b1-4)Glc = target: Gal(b1-4)Glc
How it was run: as §1

Gal(b1-4)Glc6S = target: Gal(b1-4)Glc6S
How it was run: as §1

Gal(b1-4)GlcNAc = target: Gal(b1-4)GlcNAc
How it was run: as §1

[25] = target: Gal(b1-4)GlcNAc(a1-6)Gal(b1-4)GlcNAc
How it was run: as §1

Gal(b1-4)GlcNAc(b1-2)Man = target: Gal(b1-4)GlcNAc(b1-2)Man
How it was run: as §1

[26] = target: Gal(b1-4)GlcNAc(b1-2)Man(a1-3)Man(b1-4)GlcNAc(b1-4)GlcNAc
How it was run: as §1

[27] = target: Gal(b1-4)GlcNAc(b1-2)Man(a1-3)[Gal(b1-4)GlcNAc(b1-2)Man(a1-6)]Man(b1-4)GlcNAc(b1-4)GlcNAc
How it was run: as §1

[28] = target: Gal(b1-4)GlcNAc(b1-2)Man(a1-3)[Gal(b1-4)GlcNAc(b1-2)Man(a1-6)]Man(b1-4)GlcNAc(b1-4)[Fuc(a1-6)]GlcNAc
How it was run: as §1

[29] = target: Gal(b1-4)GlcNAc(b1-2)Man(a1-3)[Gal(b1-4)GlcNAc(b1-2)Man(a1-6)][Gal(b1-4)GlcNAc(b1-4)]Man(b1-4)GlcNAc(b1-4)[Fuc(a1-6)]GlcNAc
How it was run: as §1

[30] = target: Gal(b1-4)GlcNAc(b1-2)Man(a1-3)[Gal(b1-4)GlcNAc(b1-2)Man(a1-6)][GlcNAc(b1-4)]Man(b1-4)GlcNAc(b1-4)[Fuc(a1-6)]GlcNAc
How it was run: as §1

[31] = target: Gal(b1-4)GlcNAc(b1-2)Man(a1-3)[Gal(b1-4)GlcNAc(b1-2)][GlcNAc(b1-4)]Man(b1-4)GlcNAc(b1-4)GlcNAc
How it was run: as §1

[32] = target: Gal(b1-4)GlcNAc(b1-2)Man(a1-3)[GlcNAc(b1-2)Man(a1-6)]Man(b1-4)GlcNAc(b1-4)GlcNAc
How it was run: as §1

[33] = target: Gal(b1-4)GlcNAc(b1-2)Man(a1-3)[GlcNAc(b1-4)][Gal(b1-4)GlcNAc(b1-2)Man(a1-6)]Man(b1-4)GlcNAc(b1-4)GlcNAc
How it was run: as §1

[34] = target: Gal(b1-4)GlcNAc(b1-2)Man(a1-3)[Man(a1-6)]Man(b1-4)GlcNAc(b1-4)GlcNAc
How it was run: as §1

[35] = target: Gal(b1-4)GlcNAc(b1-2)Man(a1-6)Man(b1-4)GlcNAc(b1-4)GlcNAc
How it was run: as §1

[36] = target: Gal(b1-4)GlcNAc(b1-2)Man(a1-6)[GlcNAc(b1-2)Man(a1-3)]Man(b1-4)GlcNAc(b1-4)GlcNAc
How it was run: as §1

[37] = target: Gal(b1-4)GlcNAc(b1-2)Man(a1-6)[Man(a1-3)]Man(b1-4)GlcNAc(b1-4)GlcNAc
How it was run: as §1

[38] = target: Gal(b1-4)GlcNAc(b1-2)[Gal(b1-4)GlcNAc(b1-4)]Man(a1-3)[Gal(b1-4)GlcNAc(b1-2)Man(a1-6)]Man(b1-4)GlcNAc(b1-4)GlcNAc
How it was run: as §1

[39] = target: Gal(b1-4)GlcNAc(b1-2)[Gal(b1-4)GlcNAc(b1-4)]Man(a1-3)[Gal(b1-4)GlcNAc(b1-2)[Gal(b1-4)GlcNAc(b1-6)]Man(a1-6)]Man(b1-4)GlcNAc(b1-4)GlcNAc
How it was run: as §1

B1: GST-Gap1 (Streptococcus parasanguinis), A1C3L5 (protein)
chain: MFYFVPSWYNGQRQWYYDTPWWFRVKNRMTFDDSVNQVKMFLQGQEEIGLMILNYQPQLRYFLHKQNIFGIYYWSFFDDIQNITRSYTKIIHLKDLNWPEGCEFLYSPFAVVVRLKGEIFAIVNYAEDGNLHSVSFQKNGKVTKDYIFDDRGFLSSILYYDIDERPLYQDYLNINGVWQVREFLKKENDPTPILMINDFSDQTFSKKYYNGWEELIKERLAIFQNNHVENEDVFVLASDTQHNQLVSSIFKEHRKIYSFFGNRFNLENLGQDRISINDATFLVVDTEKNEELLRKTCENLVFKSIPIVRLSPFDSRLRLGHSQTVKEQIIYFHIDNIELDELYSVIAIILELMTLHLDIELRIVTFRQDFQLDLLKTWIIDFIKTNHFEDLLFKQISEGENEIEDEGEIELSRIAMECFTNENQIIKCLDTARLVIDLGIEPDLYTQIASISAGIPQINRVSSDYVIHQKNGLVISDISKLSSAIEFYFDGLFNWNEALIYAVRKMSDYTSGKILKQWKGMLKKK
- glycan array binding signal (z-score) [1]: 2.25
- glycan array binding signal (z-score) [2]: 3.43
- glycan array binding signal (z-score) [3]: 0.101
- glycan array binding signal (z-score) [4]: -0.205
- glycan array binding signal (z-score) [5]: 0.114
- glycan array binding signal (z-score) [6]: -0.668
- glycan array binding signal (z-score) [7]: 0.275
- glycan array binding signal (z-score) [8]: 0.494
- glycan array binding signal (z-score) [9]: -0.464
- glycan array binding signal (z-score) (Gal(b1-3)GlcNAc6S): 0.02
- glycan array binding signal (z-score) [10]: -0.15
- glycan array binding signal (z-score) [11]: 1.62
- glycan array binding signal (z-score) [12]: 0.615
- glycan array binding signal (z-score) [13]: -0.186
- glycan array binding signal (z-score) [14]: -0.697
- glycan array binding signal (z-score) [15]: -0.318
- glycan array binding signal (z-score) [16]: -0.616
- glycan array binding signal (z-score) [17]: -0.119
- glycan array binding signal (z-score) [18]: -0.334
- glycan array binding signal (z-score) [19]: 0.3
- glycan array binding signal (z-score) [20]: 1.22
- glycan array binding signal (z-score) [21]: -0.547
- glycan array binding signal (z-score) [22]: -0.046
- glycan array binding signal (z-score) (Gal(b1-4)Gal): -0.435
- glycan array binding signal (z-score) [23]: 0.045
- glycan array binding signal (z-score) [24]: 0.011
- glycan array binding signal (z-score) (Gal(b1-4)Glc): -0.597
- glycan array binding signal (z-score) (Gal(b1-4)Glc6S): -0.399
- glycan array binding signal (z-score) (Gal(b1-4)GlcNAc): 0.236
- glycan array binding signal (z-score) [25]: -0.124
- glycan array binding signal (z-score) (Gal(b1-4)GlcNAc(b1-2)Man): -0.326
- glycan array binding signal (z-score) [26]: 0.353
- glycan array binding signal (z-score) [27]: -0.046
- glycan array binding signal (z-score) [28]: 0.942
- glycan array binding signal (z-score) [29]: -0.639
- glycan array binding signal (z-score) [30]: -1.06
- glycan array binding signal (z-score) [31]: -0.399
- glycan array binding signal (z-score) [32]: -1.19
- glycan array binding signal (z-score) [33]: -0.016
- glycan array binding signal (z-score) [34]: 1.07
- glycan array binding signal (z-score) [35]: 0.064
- glycan array binding signal (z-score) [36]: -0.328
- glycan array binding signal (z-score) [37]: 0.061
- glycan array binding signal (z-score) [38]: -0.353
- glycan array binding signal (z-score) [39]: -0.809
